Patent US9517222B2, “Method for the treatment of senile dementia of the Alzheimer's type” (Phenomenome Discoveries Inc., priority 2007, dated 2016)
Where no unit stands, none is given here, and values compare only within one read-out.

How the values were obtained:
[1] = Serum ethanolamine phospholipid levels in human cohorts (dementia severity, post-mortem pathology, age) by flow-injection MS/MS
[2] = Serum ethanolamine phospholipid ratios to PtdEt 16:0/18:0 (M01) in human cohorts
[3] = serum, females, post mortem SDAT
[4] = serum, females, post mortem control

In the case of `CCCCCC=CCC=CCC=CCC=CCCCCCC(=O)OC(COC=CCCCCCCCCCCCCCC)COP(=O)(O)OCCN` (centres unmarked) [Metabolite M18, Plasmenyl 16:0/22:4], the “Ratio of serum levels” value ([1]; AD, All to CN, Male) is reported as 0.708, the “Ratio of serum levels” value ([1]; ADAS 5-19 to CN, Male) is reported as 0.758 and the “Ratio of serum levels” value ([1]; ADAS 20-39 to 5-19, Male) is reported as 0.909. The “Ratio of serum levels” value ([1]; ADAS 20-39 to CN, Male) was 0.689, the “Ratio of serum levels” value ([1]; ADAS 40-70 to 5-19, Male) was 0.809 and the “Ratio of serum levels” value ([1]; ADAS 40-70 to 20-39, Male) was 0.890. For the same compound, the “Ratio of serum levels” value ([1]; ADAS 40-70 to CN, Male) was 0.613, the “Serum level, Mean” value ([1]; Cognitive Normal, Female) was 0.024 and the “Average serum level, Mean” value ([1]; Cognitive Normal, Male) was 0.026. The “Serum level, Mean” value ([1]; Post Mortem Ctl, Male) was 0.010, the “Serum level, Mean” value ([1]; Post Mortem SDAT Male) was 0.005 and the “Ratio of serum levels” value ([1]; Post mortem SDAT vs Control, Male) was 0.521. The “Serum level, Mean” value ([1]; SDAT, ADAS 5-19, Female) was 0.019, the “Average serum level, Mean” value ([1]; SDAT, ADAS 5-19, Male) was 0.020 and the “Serum level, Mean” value ([1]; SDAT, ADAS 20-39, Female) was 0.019. The “Average serum level, Mean” value ([1]; SDAT, ADAS 20-39, Male) was 0.018, the “Serum level, Mean” value ([1]; SDAT, ADAS 40-70, Female) was 0.016 and the “Average serum level, Mean” value ([1]; SDAT, ADAS 40-70, Male) was 0.016. The “Serum level, Mean” value ([1]; SDAT_all, Female) was 0.018, the “Average serum level, Mean” value ([1]; SDAT_all, Male) was 0.019 and the “Ratio, ADAS 5-19 to CN, Female” value ([1]; serum level ratio, females, ADAS 5-19 vs CN) was 0.804. The “Ratio, ADAS 20-39 to 5-19, Female” value ([1]; serum level ratio, females, ADAS 20-39 vs ADAS 5-19) was 0.985, the “Ratio, ADAS 20-39 to CN, Female” value ([1]; serum level ratio, females, ADAS 20-39 vs CN) was 0.792 and the “Ratio, ADAS 40-70 to 5-19, Female” value ([1]; serum level ratio, females, ADAS 40-70 vs ADAS 5-19) was 0.837. For the same compound, the “Ratio, ADAS 40-70 to 20-39, Female” value ([1]; serum level ratio, females, ADAS 40-70 vs ADAS 20-39) was 0.850, the “Ratio, ADAS 40-70 to CN, Female” value ([1]; serum level ratio, females, ADAS 40-70 vs CN) was 0.673 and the “Ratio, 50-59 vs. 40-49, Female” value ([1]; serum level ratio, females, age 50-59 vs 40-49) was 0.778. For the same compound, the “Ratio, 60-69 vs. 40-49, Female” value ([1]; serum level ratio, females, age 60-69 vs 40-49) was 0.594, the “Ratio, 70+ vs. 40-49, Female” value ([1]; serum level ratio, females, age 70+ vs 40-49) was 0.733 and the “Ratio, AD, All to CN, Female” value ([1]; serum level ratio, females, all AD vs cognitively normal) was 0.754. The “Ratio, Autopsy AD vs. Control, Female” value ([1]; serum level ratio, females, autopsy AD vs control) was 0.579, the “Ratio, 50-59 vs. 40-49, Male” value ([1]; serum level ratio, males, age 50-59 vs 40-49) was 1.055 and the “Ratio, 60-69 vs. 40-49, Male” value ([1]; serum level ratio, males, age 60-69 vs 40-49) was 1.032. For the same compound, the “Ratio, 70+ vs. 40-49, Male” value ([1]; serum level ratio, males, age 70+ vs 40-49) was 0.904, the “Mean serum level, Age Ctl, 30-39, Female” value ([1]; serum, females, age 30-39) was 0.028 and the “Mean serum level, Age Ctl, 40-49, Female” value ([1]; serum, females, age 40-49) was 0.032. For the same compound, the “Mean serum level, Age Ctl, 50-59, Female” value ([1]; serum, females, age 50-59) was 0.025, the “Mean serum level, Age Ctl, 60-69, Female” value ([1]; serum, females, age 60-69) was 0.019 and the “Mean serum level, Age Ctl, 70+, Female” value ([1]; serum, females, age 70+) was 0.023. The “Mean serum level, Post Mortem SDAT, Female” value [1, 3] was 0.008, the “Mean serum level, Post Mortem Ctl, Female” value [1, 4] was 0.014 and the “Mean serum level, Age Ctl, 30-39, Male” value ([1]; serum, males, age 30-39) was 0.032. For the same compound, the “Mean serum level, Age Ctl, 40-49, Male” value ([1]; serum, males, age 40-49) was 0.025, the “Mean serum level, Age Ctl, 50-59, Male” value ([1]; serum, males, age 50-59) was 0.027 and the “Mean serum level, Age Ctl, 60-69, Male” value ([1]; serum, males, age 60-69) was 0.026. For the same compound, the “Mean serum level, Age Ctl, 70+, Male” value ([1]; serum, males, age 70+) was 0.023, the “Ratio of ethanolamine phospholipid ratios to M01 between cohorts” value (shortened to “Ratio … to M01 between cohorts”) ([2]; AD, All to CN, Male) was 0.672 and the “Ratio … to M01 between cohorts” value ([2]; ADAS 5-19 to CN, Male) was 0.714. For the same compound, the “Ratio … to M01 between cohorts” value ([2]; ADAS 20-39 to CN, Male) was 0.666, the “Ratio … to M01 between cohorts” value ([2]; ADAS 40-70 to CN, Male) was 0.603 and the “Average serum ethanolamine phospholipid ratio to M01, Mean” value ([2]; Cognitive Normal, Male, serum) was 0.232. The “Average serum ethanolamine phospholipid ratio to M01, Mean” value ([2]; SDAT, ADAS 5-19, Male, serum) was 0.166, the “Average serum ethanolamine phospholipid ratio to M01, Mean” value ([2]; SDAT, ADAS 20-39, Male, serum) was 0.155 and the “Average serum ethanolamine phospholipid ratio to M01, Mean” value ([2]; SDAT, ADAS 40-70, Male, serum) was 0.140. For the same compound, the “Average serum ethanolamine phospholipid ratio to M01, Mean” value ([2]; SDAT_all, Male, serum) was 0.156, the “Ethanolamine Phospholipid Ratio to M01, Mean, Age Ctl, 30-39, Female” value ([2]; human serum, females aged 30-39) was 0.282 and the “Ethanolamine Phospholipid Ratio to M01, Mean, Age Ctl, 40-49, Female” value ([2]; human serum, females aged 40-49) was 0.289. The “Ethanolamine Phospholipid Ratio to M01, Mean, Age Ctl, 50-59, Female” value ([2]; human serum, females aged 50-59) was 0.245, the “Ratio of Ethanolamine Phospholipid Ratio to M01, 50-59 vs. 40-49, Female” value ([2]; human serum, females aged 50-59 vs. females aged 40-49) was 0.847 and the “Ethanolamine Phospholipid Ratio to M01, Mean, Age Ctl, 60-69, Female” value ([2]; human serum, females aged 60-69) was 0.160. For the same compound, the “Ratio of Ethanolamine Phospholipid Ratio to M01, 60-69 vs. 40-49, Female” value ([2]; human serum, females aged 60-69 vs. females aged 40-49) was 0.552, the “Ethanolamine Phospholipid Ratio to M01, Mean, Age Ctl, 70+_Female” value ([2]; human serum, females aged 70+) was 0.191 and the “Ratio of Ethanolamine Phospholipid Ratio to M01, 70+ vs. 40-49, Female” value ([2]; human serum, females aged 70+ vs. females aged 40-49) was 0.660. For the same compound, the “Ratio of Ethanolamine Phospholipid Ratio to M01, 50-59 vs. 40-49, Male” value ([2]; human serum, males aged 50-59 vs. males aged 40-49) was 1.067, the “Ratio of Ethanolamine Phospholipid Ratio to M01, 60-69 vs. 40-49, Male” value ([2]; human serum, males aged 60-69 vs. males aged 40-49) was 0.851 and the “Ratio of Ethanolamine Phospholipid Ratio to M01, 70+ vs. 40-49, Male” value ([2]; human serum, males aged 70+ vs. males aged 40-49) was 0.761. The “Ratio of ethanolamine phospholipid ratio to M01, ADAS 5-19 to CN, Female” value ([2]; serum, females, ADAS 5-19 vs cognitive normal) was 0.879, the “Ratio of ethanolamine phospholipid ratio to M01, ADAS 20-39 to 5-19, Female” value ([2]; serum, females, ADAS 20-39 vs ADAS 5-19) was 0.960 and the “Ratio of ethanolamine phospholipid ratio to M01, ADAS 20-39 to CN, Female” value ([2]; serum, females, ADAS 20-39 vs cognitive normal) was 0.844. The “Ratio of ethanolamine phospholipid ratio to M01, ADAS 40-70 to 5-19, Female” value ([2]; serum, females, ADAS 40-70 vs ADAS 5-19) was 0.777, the “Ratio of ethanolamine phospholipid ratio to M01, ADAS 40-70 to 20-39, Female” value ([2]; serum, females, ADAS 40-70 vs ADAS 20-39) was 0.809 and the “Ratio of ethanolamine phospholipid ratio to M01, ADAS 40-70 to CN, Female” value ([2]; serum, females, ADAS 40-70 vs cognitive normal) was 0.683. The “Ethanolamine phospholipid ratio to M01, Mean, SDAT, ADAS 5-19, Female” value ([2]; serum, females, SDAT ADAS 5-19) was 0.178, the “Ethanolamine phospholipid ratio to M01, Mean, SDAT, ADAS 20-39, Female” value ([2]; serum, females, SDAT ADAS 20-39) was 0.170 and the “Ethanolamine phospholipid ratio to M01, Mean, SDAT, ADAS 40-70, Female” value ([2]; serum, females, SDAT ADAS 40-70) was 0.138. For the same compound, the “Ratio of ethanolamine phospholipid ratio to M01, AD, All to CN, Female” value ([2]; serum, females, all AD vs cognitive normal) was 0.798, the “Ethanolamine phospholipid ratio to M01, Mean, SDAT_all Female” value ([2]; serum, females, all SDAT) was 0.161 and the “Ratio of ethanolamine phospholipid ratio to M01, Autopsy AD vs. Control, Female” value ([2]; serum, females, autopsy AD vs post mortem control) was 0.854. For the same compound, the “Ethanolamine phospholipid ratio to M01, Mean, Cognitive Normal, Female” value ([2]; serum, females, cognitive normal) was 0.202, the “Ethanolamine phospholipid ratio to M01, Mean, Post Mortem SDAT Female” value [2, 3] was 0.069 and the “Ethanolamine phospholipid ratio to M01, Mean, Post Mortem Ctl, Female” value [2, 4] was 0.081. For the same compound, the “Ratio of ethanolamine phospholipid ratio to M01, ADAS 20-39 to 5-19, Male” value ([2]; serum, males, SDAT ADAS 20-39 vs ADAS 5-19) was 0.932, the “Ratio of ethanolamine phospholipid ratio to M01, ADAS 40-70 to 5-19, Male” value ([2]; serum, males, SDAT ADAS 40-70 vs ADAS 5-19) was 0.844 and the “Ratio of ethanolamine phospholipid ratio to M01, ADAS 40-70 to 20-39, Male” value ([2]; serum, males, SDAT ADAS 40-70 vs ADAS 20-39) was 0.905. The “Ethanolamine phospholipid ratio to M01, Mean, Age Ctl, 30-39, Male” value ([2]; serum, males, age control 30-39) was 0.258, the “Ethanolamine phospholipid ratio to M01, Mean, Age Ctl, 40-49, Male” value ([2]; serum, males, age control 40-49) was 0.229 and the “Ethanolamine phospholipid ratio to M01, Mean, Age Ctl, 50-59, Male” value ([2]; serum, males, age control 50-59) was 0.244. For the same compound, the “Ethanolamine phospholipid ratio to M01, Mean, Age Ctl, 60-69, Male” value ([2]; serum, males, age control 60-69) was 0.195, the “Ethanolamine phospholipid ratio to M01, Mean, Age Ctl, 70+_Male” value ([2]; serum, males, age control 70+) was 0.174 and the “Ethanolamine phospholipid ratio to M01, Mean, Post Mortem SDAT Male” value ([2]; serum, males, post mortem SDAT) was 0.056. For the same compound, the “Ratio of ethanolamine phospholipid ratio to M01, SDAT vs Control (post mortem, males)” value ([2]; serum, males, post mortem SDAT vs post mortem control) was 0.656 and the “Ethanolamine phospholipid ratio to M01, Mean, Post Mortem Ctl, Male” value ([2]; serum, males, post mortem control) was 0.085.
